The list does not hold the whole screen: it is rich in T/C values a quarter to a half above the control, in often repeated tests (any T/C) and in doses without a T/C. Other doses and runs of a compound stand elsewhere. T/C: endpoint of the treated group in % of that of the vehicle group. Some doses have a count of surviving animals in place of a T/C: the source holds a T/C of zero for them, seemingly a mark for toxic or unscored doses. Some survivor counts are full or nearly so, which does not show that the dose was tolerated: the source hardly ever lists a survival T/C far under the control, and the zero likely stands for such cases as well. Counts of survivors are from the toxicity check (mostly the fifth day) where no day follows; animals may have died later. Schedules are NCI's codes, read here as Q, the interval in days (D) or hours (H), X, the number of doses. Some entries were tested several times; the results are listed from low to high. Where survival is the endpoint, this PubChem deposit counts one and a half times the control or more as active, and values a quarter to a half above the control carry no call in these data; other NCI protocols may use other cut-offs.
Tested on: CD2F1 mice, L1210 leukemia ip, survival T/C
Test: NCI In Vivo Anticancer Drug Screen. Data for tumor model L1210 Leukemia (intraperitoneal) in CD2F1 (CDF1) mice
Conditions: higher T/C = longer survival
Outline: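 Antitumor effect is scored in animals hosting a serially transplanted tumor. Values compare compound-dosed animals against vehicle-only controls as a simple quotient.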

[1] = T/C endpoint: mean survival time, dose: 50.0 mg/kg/injection, schedule: Q01DX009 (ip), vehicle: other
[2] = T/C endpoint: mean survival time, dose: 100.0 mg/kg/injection, schedule: Q01DX009 (ip), vehicle: other
[3] = T/C endpoint: mean survival time, dose: 200.0 mg/kg/injection, schedule: Q01DX009 (ip), vehicle: other
[4] = T/C endpoint: mean survival time, dose: 200.0 mg/kg/injection, schedule: Q01DX001 (ip), vehicle: saline with Tween-80
[5] = T/C endpoint: mean survival time, dose: 400.0 mg/kg/injection, schedule: Q01DX001 (ip), vehicle: saline with Tween-80
[6] = T/C endpoint: mean survival time, dose: 400.0 mg/kg/injection, schedule: Q01DX009 (ip), vehicle: saline with Tween-80
[7] = T/C endpoint: mean survival time, dose: 400.0 mg/kg/injection, schedule: Q04DX003 (ip), vehicle: saline with Tween-80
[8] = T/C endpoint: mean survival time, dose: 100.0 mg/kg/injection, schedule: Q01DX009 (ip), vehicle: saline with Tween-80
[9] = T/C endpoint: mean survival time, dose: 200.0 mg/kg/injection, schedule: Q01DX009 (ip), vehicle: saline with Tween-80
[10] = T/C endpoint: mean survival time, dose: 200.0 mg/kg/injection, schedule: Q04DX003 (ip), vehicle: saline with Tween-80

Cc1ccnc(N)c1N was tested, and the survivor count [1] was 3 of 6, the survivor count [2] was 0 of 6 and the survivor count [3] was 0 of 6.
In the case of Cc1ccc(C2=C(O)C(=O)C(c3ccc(C)cc3)=C(O)C2=O)cc1, the survivor count (T/C endpoint: mean survival time, dose: 300.0 mg/kg/injection, schedule: Q01DX001 (ip), vehicle: other) is reported as 0 of 6.
CCCCCCCCCCCCOc1ccc(Sc2ccc(OCCCCCCCCCCCC)cc2C)c(C)c1 was tested, and the survivor count [4] was 6 of 6 and the survivor count [5] was 6 of 6.
With [Cl][Pt+2]([Cl])([Cl])[Cl].[NH-]CC1(C[NH-])CCCC1 the survivor count (T/C endpoint: median survival time, dose: 25.0 mg/kg/injection, schedule: Q04DX003 (ip), vehicle: saline) was 5 of 6, the survivor count (T/C endpoint: median survival time, dose: 50.0 mg/kg/injection, schedule: Q04DX003 (ip), vehicle: saline) was 0 of 6 and 6 of 6 and the survivor count (T/C endpoint: median survival time, dose: 100.0 mg/kg/injection, schedule: Q04DX003 (ip), vehicle: saline) was 0 of 6. For the same compound, the survivor count (T/C endpoint: median survival time, dose: 200.0 mg/kg/injection, schedule: Q04DX003 (ip), vehicle: saline) was 0 of 6.
For CC(C)(C)CC(C)(C)NCC(O)COc1ccc(C(C)(C)c2ccc(OCC(O)CNC(C)(C)CC(C)(C)C)cc2)cc1 (stereo not drawn), the survivor count (T/C endpoint: mean survival time, dose: 25.0 mg/kg/injection, schedule: Q01DX009 (ip), vehicle: Klucel (hydroxypropylcellulose) (HPC)) was 5 of 6, the survivor count (T/C endpoint: mean survival time, dose: 100.0 mg/kg/injection, schedule: Q01DX001 (ip), vehicle: saline with Tween-80) was 0 of 6 and the survivor count [4] was 0 of 6. The survivor count [5] was 0 of 6.
CO[C@@]12[C@@H]3N[C@@H]3CN1C1=C(C(=O)C(NCCc3ccccn3)=C(C)C1=O)[C@@H]2COC(N)=O was tested, and the T/C (T/C endpoint: median survival time, dose: 25.0 mg/kg/injection, schedule: Q01DX001 (ip), vehicle: saline with Tween-80) was 142 % of control, the survivor count (T/C endpoint: median survival time, dose: 50.0 mg/kg/injection, schedule: Q01DX005 (ip), vehicle: saline with Tween-80) was 1 of 6 and the survivor count (T/C endpoint: median survival time, dose: 138.89 mg/kg/injection, schedule: Q01DX001 (ip), vehicle: saline with Tween-80) was 3 of 6. The T/C (T/C endpoint: median survival time, dose: 6250.0 micrograms/kg/injection, schedule: Q01DX001 (ip), vehicle: saline with Tween-80) was 126 % of control and the T/C (T/C endpoint: median survival time, dose: 12500.0 micrograms/kg/injection, schedule: Q01DX001 (ip), vehicle: saline with Tween-80) was 143 % of control.
For C=CCNc1nc2c(s1)CCc1cc(OC)c(OC)cc1-2, the survivor count [6] was 3 of 6.
For CSCCCCCCSC, the survivor count [7] was 4 of 6.
For CC(=O)OC1COC(NC(=O)N(CCCl)N=O)C(OC(C)=O)C1OC(C)=O (stereo not drawn), the T/C (T/C endpoint: median survival time, dose: 1.5 mg/kg/injection, schedule: Q01DX009 (ip), vehicle: saline with Tween-80, evaluated on day 30) was 125 and 139 % of control, the T/C (T/C endpoint: median survival time, dose: 1.5 mg/kg/injection, schedule: Q01DX009 (ip), vehicle: saline with Tween-80, evaluated on day 60) was 144 % of control and the T/C (T/C endpoint: median survival time, dose: 3.0 mg/kg/injection, schedule: Q01DX009 (ip), vehicle: saline with Tween-80) was 140 % of control.
In the case of CC1CCc2ccccc2N1CCN (stereo not drawn), the survivor count (T/C endpoint: mean survival time, dose: 200.0 mg/kg/injection, schedule: Q04DX003 (ip), vehicle: Klucel (hydroxypropylcellulose) (HPC)) is reported as 1 of 6 and the survivor count (T/C endpoint: mean survival time, dose: 400.0 mg/kg/injection, schedule: Q04DX003 (ip), vehicle: Klucel (hydroxypropylcellulose) (HPC)) is reported as 1 of 6.
O=C(O)c1ccccc1SSc1ccccc1C(=O)O was tested, and the survivor count [7] was 1 of 6.
CCC(C)CC(C)C1=NC(C)(C)CC(C)O1 (stereo not drawn) was tested, and the survivor count [5] was 0 of 6.
In the case of NC1CCCCC1N.O=C(Nc1ccc2c(O)cc(S(=O)(=O)[O-])cc2c1)c1ccccc1.O=C(Nc1ccc2c(O)cc(S(=O)(=O)[O-])cc2c1)c1ccccc1.[Pt+4], the T/C (T/C endpoint: median survival time, dose: 12.5 mg/kg/injection, schedule: Q04DX003 (ip), vehicle: saline with Tween-80) is reported as 141 % of control, the survivor count (T/C endpoint: median survival time, dose: 25.0 mg/kg/injection, schedule: Q04DX003 (ip), vehicle: saline with Tween-80) is reported as 6 of 6 and the survivor count (T/C endpoint: median survival time, dose: 50.0 mg/kg/injection, schedule: Q04DX003 (ip), vehicle: saline with Tween-80) is reported as 5 of 6. For the same compound, the survivor count (T/C endpoint: median survival time, dose: 100.0 mg/kg/injection, schedule: Q04DX003 (ip), vehicle: saline with Tween-80) was 0 of 6 and the survivor count (T/C endpoint: median survival time, dose: 200.0 mg/kg/injection, schedule: Q04DX003 (ip), vehicle: saline with Tween-80) was 0 of 6.
COc1ccc(OC)c(NC(=O)NNc2ccc([N+](=O)[O-])cc2[N+](=O)[O-])c1 was tested, and the survivor count [6] was 4 of 6.
O=S1(=O)Cc2c(Br)c(Br)c(Br)c(Br)c2C1 was tested, and the survivor count [8] was 6 of 6, the survivor count [9] was 6 of 6 and the survivor count [6] was 4 of 6.
C=CC1CC2C=CC1C2 (stereo not drawn) (tested in a mixture with another compound) was tested, and the survivor count (T/C endpoint: mean survival time, dose: 322.0 mg/kg/injection, schedule: Q01DX009 (ip), vehicle: saline with Tween-80) was 3 of 6.
With CN(C)c1ccc(C(=C2C=CC(=[N+](C)C)C=C2)c2ccc(N(C)C)cc2)cc1 (tested in a mixture with another compound) the survivor count (T/C endpoint: mean survival time, dose: 5.0 mg/kg/injection, schedule: Q01DX009 (ip), vehicle: saline with Tween-80) was 4 of 6, the survivor count (T/C endpoint: mean survival time, dose: 5.0 mg/kg/injection, schedule: Q01DX009 (ip), vehicle: suspension in saline) was 5 of 6 and the survivor count (T/C endpoint: mean survival time, dose: 10.0 mg/kg/injection, schedule: Q01DX009 (ip), vehicle: suspension in saline) was 2 of 6.
For Cc1nnnn1C12CC3CC(CC(C3)C1)C2, the survivor count (T/C endpoint: mean survival time, dose: 18.8 mg/kg/injection, schedule: Q01DX009 (ip), vehicle: saline with Tween-80) was 6 of 6 and the survivor count (T/C endpoint: mean survival time, dose: 37.5 mg/kg/injection, schedule: Q01DX009 (ip), vehicle: saline with Tween-80) was 2 of 6.
For CCCCCCCCCCCCCCCC(=O)N(C/C=C/CN(C(=O)CCCCCCCCCCCCCCC)C(C)CCCN(CC)CC)C(C)CCCN(CC)CC (stereo not drawn), the survivor count [1] was 1 of 6, the survivor count [2] was 0 of 6 and the survivor count [3] was 0 of 6.
With COC(=O)C(Cc1ccc(N(CCCl)CCCl)cc1)N=NNc1nc[nH]c1C(N)=O (stereo not drawn) the T/C (T/C endpoint: mean survival time, dose: 200.0 mg/kg/injection, schedule: Q01DX001 (ip), vehicle: steroid suspending solution) was 127 % of control.
C1CC2CCC3CCCC4CCC(C1)C2C34 (stereo not drawn) was tested, and the survivor count [7] was 6 of 6.
With COC(=O)CC(=O)CBr the survivor count (T/C endpoint: mean survival time, dose: 100.0 mg/kg/injection, schedule: Q01DX001 (ip), vehicle: saline) was 0 of 6, the survivor count (T/C endpoint: mean survival time, dose: 200.0 mg/kg/injection, schedule: Q01DX001 (ip), vehicle: saline) was 0 of 6 and the survivor count (T/C endpoint: mean survival time, dose: 400.0 mg/kg/injection, schedule: Q01DX001 (ip), vehicle: saline) was 0 of 6.
O=S(=O)([O-])O.O=S(O)S(=O)O.[Co+3].[NH2-].[NH2-].[NH2-].[NH2-].[NH2-] was tested, and the survivor count (T/C endpoint: mean survival time, dose: 200.0 mg/kg/injection, schedule: Q04DX002 (ip), vehicle: saline with Tween-80) was 1 of 3 and the survivor count (T/C endpoint: mean survival time, dose: 400.0 mg/kg/injection, schedule: Q04DX002 (ip), vehicle: saline with Tween-80) was 0 of 3.
In the case of O=c1oc(-c2ccc(Cl)cc2)nc2cc(Cl)ccc12, the survivor count [10] is reported as 1 of 6 and the survivor count [7] is reported as 0 of 6.
For Oc1ccccc1C=NCCN=Cc1ccccc1O.[CH3][Sn]([CH3])([Cl])[Cl], the survivor count [8] was 2 of 6, the survivor count [9] was 0 of 6 and the survivor count [6] was 0 of 6.
For COc1ccc2c(c1OC)CC1N(S(=O)(=O)c3ccc(C)cc3)CCC13c1ccccc1N(C(C)=O)C23 (stereo not drawn), the survivor count (T/C endpoint: mean survival time, dose: 75.0 mg/kg/injection, schedule: Q01DX001 (ip), vehicle: other) was 6 of 6.
NC(=O)NN=C1CCC(CC2CCCCC2)CC1 (stereo not drawn) was tested, and the survivor count [10] was 3 of 6 and the survivor count [7] was 0 of 6.
In the case of C=CC(=O)NCNC(=O)C=C, the T/C [8] is reported as 137 % of control, the survivor count [9] is reported as 3 of 6 and the survivor count (T/C endpoint: mean survival time, dose: 200.0 mg/kg/injection, schedule: Q01DX009 (ip), vehicle: saline) is reported as 2 of 6. For the same compound, the survivor count [6] was 0 of 6 and the survivor count (T/C endpoint: mean survival time, dose: 400.0 mg/kg/injection, schedule: Q01DX009 (ip), vehicle: saline) was 0 of 6.
CC(=O)OC1CCCCCCCCCCC12OCCO2 (stereo not drawn) was tested, and the T/C (T/C endpoint: mean survival time, dose: 200.0 mg/kg/injection, schedule: Q04DX002 (ip), vehicle: other) was 125 % of control.
In the case of O=[N+]([O-])/C=C\c1ccccc1, the survivor count [8] is reported as 3 of 6, the survivor count [9] is reported as 0 of 6 and the survivor count [6] is reported as 0 of 6.
In the case of S=c1[nH]cc2cnccn12, the survivor count [6] is reported as 3 of 10.
With NC(=S)N/N=C/c1ccc([N+](=O)[O-])cc1 the survivor count (T/C endpoint: mean survival time, dose: 150.0 mg/kg/injection, schedule: Q01DX001 (ip), vehicle: saline with Tween-80) was 0 of 6 and the survivor count (T/C endpoint: mean survival time, dose: 300.0 mg/kg/injection, schedule: Q01DX001 (ip), vehicle: saline with Tween-80) was 0 of 6.

From PubChem BioAssay AID256 (DTP/NCI, 2004)
